Assay results: PubChem BioAssay AID2685 (National Center for Advancing Translational Sciences (NCATS), 2010)
The list shows a part of the results. The main result of the screen is listed elsewhere. These columns were measured beside it and carry no call. Compounds called inactive in the main read-out are mostly missing here. Potencies come from curve fits of mixed quality, noted in brackets.

Assay: qHTS Assay for Lipid Storage Modulators in Drosophila S3 Cells;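 as to cell number change: cells counted by Cell Tracker Red CMTPX staining in the red channel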
Details: BODIPY lipid droplet fluorescence, 18-24 h; for cell number change: measured here: cell count max response, cells fed with added oleic acid
Method in brief: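 Laser-scanning cytometry quantifies lipid droplet accumulation (500–530 nm total intensity; droplet/cell object ratio) in oleic acid-fed (400 uM added) Drosophila S3 cells treated with a concentration series. 20 uM Triacsin C defined 100% inhibition.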

[1] = measured here: lipid fluorescence (Fed channel) AC50, cells fed with added oleic acid
[2] = measured here: cell number channel AC50, cells fed with added oleic acid

Compound	cell number change [%]	AC50 [1]	AC50 [2]
COc1cc(-c2nc(S(=O)(=O)c3ccc(Cl)cc3)c(N3CCOCC3)o2)cc(OC)c1OC	5.23	0.731 µM [rising, single point]	–
COc1ccc(NC(=O)N2CCN(C(=O)c3ccco3)CC2)c(OC)c1	18.8	–	–
COc1cc(C(=O)NCC2CCCO2)cc(Br)c1OCc1ccccc1 (configuration not stated)	-5.19	–	–
O=C(CCCc1c[nH]c2ccccc12)NCc1ccc2c(c1)OCO2	24.4	16.4 µM [rising, single point]	–
O=C(O)Cn1c(=S)sc2ccccc21	-12	0.82 µM [falling, single point]	–
Cc1ccc([N+](=O)[O-])c(NC2OC(CO)C(O)C2O)c1 (configuration not stated)	-4.3	–	0.731 µM [falling, single point]
COc1ccc(-c2c(NC(=O)c3ccco3)oc3c(C)cccc3c2=O)cc1OC	-13	6.51 µM [rising, single point]	–
O=C(Cc1ccc(Cl)cc1)Nc1ccc(C(=O)N2CCOCC2)cc1	–	–	0.00461 µM [rising, full curve, poor fit]
O=C(NCCN1C(=O)S/C(=C\c2cccs2)C1=O)c1ccco1	23.6	0.461 µM [rising, full curve, poor fit]	–
CC(=O)c1cccc(CN2CCC(n3nccc3NC(=O)CCOc3ccccc3)CC2)c1	55.9	18.4 µM [rising, partial curve]	–
Cc1nn(C)cc1S(=O)(=O)Nc1ncccn1	12.4	–	–
Fc1cccc(Cl)c1C1Nc2cccc3cccc(c23)N1	-53.6	–	9.2 µM [falling, partial curve]
COc1ccc(/C=N/N2C(C)CCCC2C)cc1OC (configuration not stated)	-0.709	3.26 µM [rising, full curve, poor fit]	–
O=C(Cc1ccc2c(c1)OCCO2)c1c(O)cc(O)cc1O	0.101	0.731 µM [rising, full curve]	–
O=S(=O)(c1cc(C(F)(F)F)ccc1Cl)N1CCN(c2ncnc3ccccc23)CC1	-48.3	–	9.2 µM [falling, partial curve]
CC1CCN(CCCOc2ccc(Br)cc2Cl)CC1	-6.34	29.1 µM [falling, partial curve, poor fit]	0.164 µM [falling, full curve, poor fit]
Cc1ccc(C)n1-c1ccc(C(=O)NCc2ccncc2)cc1	–	3.26 µM [rising, single point]	4.11 µM [rising, partial curve, poor fit]
CCC(=O)Nc1nc2c(c(=O)[nH]1)CCCC2	–	–	6.51 µM [falling, single point]

Ordered by heavy-atom count (rising): 3 of the compounds above
Compound	cell number change [%]	AC50 [1]	AC50 [2]
COc1ccc(/C=N/N2C(C)CCCC2C)cc1OC (configuration not stated)	-0.709	3.26 µM [rising, full curve, poor fit]	–
O=C(Cc1ccc(Cl)cc1)Nc1ccc(C(=O)N2CCOCC2)cc1	–	–	0.00461 µM [rising, full curve, poor fit]
COc1ccc(-c2c(NC(=O)c3ccco3)oc3c(C)cccc3c2=O)cc1OC	-13	6.51 µM [rising, single point]	–
